Test results as given in patent publication US20030100489A1.
These are yes or no findings as the source states them, for the method shown. For some of these results: Binding seen in cells or lysates may run through a third protein. Some entries that bind do so weakly or less than the wild type.

The chains behind the UniProt entries cited, without tags or fusion partners. Where a name states a change or a piece, a line headed by the entry shows the natural chain unless it says otherwise.
UniProt P11802: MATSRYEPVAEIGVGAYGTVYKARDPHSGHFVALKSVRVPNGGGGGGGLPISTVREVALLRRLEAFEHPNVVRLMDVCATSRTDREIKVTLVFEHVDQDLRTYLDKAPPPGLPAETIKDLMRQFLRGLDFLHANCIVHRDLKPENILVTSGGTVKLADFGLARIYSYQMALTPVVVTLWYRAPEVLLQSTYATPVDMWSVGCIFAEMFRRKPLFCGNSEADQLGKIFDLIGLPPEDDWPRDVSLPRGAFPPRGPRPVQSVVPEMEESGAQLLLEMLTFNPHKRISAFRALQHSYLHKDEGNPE
UniProt Q00534: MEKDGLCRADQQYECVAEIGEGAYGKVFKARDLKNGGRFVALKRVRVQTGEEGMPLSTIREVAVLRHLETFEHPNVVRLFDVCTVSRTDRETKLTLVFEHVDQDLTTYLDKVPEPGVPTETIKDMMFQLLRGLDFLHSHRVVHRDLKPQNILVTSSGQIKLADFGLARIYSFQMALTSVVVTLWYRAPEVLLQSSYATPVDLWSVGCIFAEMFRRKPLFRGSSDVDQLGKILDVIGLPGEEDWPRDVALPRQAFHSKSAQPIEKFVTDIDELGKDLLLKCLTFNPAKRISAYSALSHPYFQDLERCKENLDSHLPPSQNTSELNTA
UniProt P42772: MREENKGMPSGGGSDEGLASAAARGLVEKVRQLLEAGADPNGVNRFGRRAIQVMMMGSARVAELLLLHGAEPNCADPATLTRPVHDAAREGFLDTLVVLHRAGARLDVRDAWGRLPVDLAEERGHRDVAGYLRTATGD
UniProt P42771: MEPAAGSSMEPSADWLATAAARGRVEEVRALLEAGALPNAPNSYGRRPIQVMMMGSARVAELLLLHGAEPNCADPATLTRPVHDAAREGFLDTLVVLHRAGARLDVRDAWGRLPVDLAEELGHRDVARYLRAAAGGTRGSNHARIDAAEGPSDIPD

What was measured:
CDK4 (wild-type) (human) [1] = target: CDK4 (wild-type) (human) (UniProt P11802); test: anti-CDK4 co-immunoprecipitation from TGF-β arrested HaCaT cells
CDK4 (wild-type) (human) [2] = target: CDK4 (wild-type) (human) (UniProt P11802); test: anti-CDK4 co-immunoprecipitation from 35S-labelled HaCaT cells treated with TGF-β
CDK6 (human) [3] = target: CDK6 (human) (UniProt Q00534); test: anti-CDK6 co-immunoprecipitation from TGF-β arrested HaCaT cells
CDK4 (wild-type) (human) [4] = target: CDK4 (wild-type) (human) (UniProt P11802); test: anti-CDK4 co-immunoprecipitation from asynchronous HaCaT cells treated with TGF-β
CDK4 (wild-type) (human) [5] = target: CDK4 (wild-type) (human) (UniProt P11802); test: immunoprecipitation from mixed Sf9 lysates
CDK6 (human) [6] = target: CDK6 (human) (UniProt Q00534); test: anti-CDK6 co-immunoprecipitation from asynchronous HaCaT cells treated with TGF-β
CDK6 (human) [7] = target: CDK6 (human) (UniProt Q00534); test: anti-CDK6 co-immunoprecipitation from TGF-β arrested human keratinocytes
CDK4 (wild-type) (human) [8] = target: CDK4 (wild-type) (human) (UniProt P11802); test: anti-CDK4 co-immunoprecipitation from TGF-β arrested human keratinocytes
CDK6 (human) [9] = target: CDK6 (human) (UniProt Q00534); test: anti-CDK6 co-immunoprecipitation from 35S-labelled HaCaT cells treated with TGF-β
CDK4 (wild-type) (human) [10] = target: CDK4 (wild-type) (human) (UniProt P11802); test: GST pull-down of 35S-labelled in vitro translated CDKs on glutathione sepharose
CDK6 (human) [11] = target: CDK6 (human) (UniProt Q00534); test: as above
[12] = target: GAL4db-CDK4 fusion (human); test: yeast two-hybrid screen of HeLa cDNA with GAL4db-CDK4; positive clones encode p16
[13] = target: GAL4db-CDK4 fusion (human); test: yeast two-hybrid (HIS3 growth and beta-galactosidase) in YPB2

Measured: binding

p15 (from UniProt P42772 1-138)
not listed: CDK4 (wild-type) (human) [10] | CDK6 (human) [11] | [12] | [13]
binds: all other assays above

GST-p15 (from UniProt P42772 1-138)
binds: CDK4 (wild-type) (human) [10] | CDK6 (human) [11]

GAL4ad-p16 fusion (from UniProt P42771 1-156)
binds: [12] | [13]
